Article PMC5974431
Positions count from the first letter of the chain named. No constants are given. Whether binding was seen depends on the method and setting. In cells and extracts the contact can be indirect. Some entries that bind do so weakly or less than the wild type. Tags and fused reporters may be left off the sequences shown.

Chains of the proteins cited; added tags and fusions are not shown.
UniProt Q96AP0: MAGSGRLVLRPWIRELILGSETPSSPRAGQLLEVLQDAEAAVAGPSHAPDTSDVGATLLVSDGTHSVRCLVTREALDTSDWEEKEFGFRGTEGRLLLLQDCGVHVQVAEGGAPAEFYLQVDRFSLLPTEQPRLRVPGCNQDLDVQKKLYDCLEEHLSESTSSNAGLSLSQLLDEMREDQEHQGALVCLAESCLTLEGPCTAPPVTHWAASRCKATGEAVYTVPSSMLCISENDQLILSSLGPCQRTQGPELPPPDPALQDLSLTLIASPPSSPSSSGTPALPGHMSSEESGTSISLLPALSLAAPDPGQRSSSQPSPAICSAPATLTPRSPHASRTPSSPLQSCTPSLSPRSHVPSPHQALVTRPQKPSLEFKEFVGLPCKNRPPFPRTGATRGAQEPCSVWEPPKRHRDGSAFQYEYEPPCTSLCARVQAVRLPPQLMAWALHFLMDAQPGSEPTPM
UniProt P54274: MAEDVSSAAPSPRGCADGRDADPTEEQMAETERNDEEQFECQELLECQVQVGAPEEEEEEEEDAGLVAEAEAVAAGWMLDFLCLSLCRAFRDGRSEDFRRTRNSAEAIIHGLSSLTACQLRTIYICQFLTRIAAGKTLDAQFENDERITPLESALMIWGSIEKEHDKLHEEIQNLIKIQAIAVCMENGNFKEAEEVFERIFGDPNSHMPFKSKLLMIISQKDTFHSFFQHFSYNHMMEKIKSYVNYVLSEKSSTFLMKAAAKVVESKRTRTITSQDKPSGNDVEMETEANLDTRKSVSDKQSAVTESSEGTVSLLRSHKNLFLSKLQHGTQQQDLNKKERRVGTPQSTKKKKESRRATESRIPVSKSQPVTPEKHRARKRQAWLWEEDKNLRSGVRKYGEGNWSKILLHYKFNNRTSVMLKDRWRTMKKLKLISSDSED

Key:
Assay in all cases: co-IP; HEK 293T cells cotransfected with 5 μg of each plasmid, lysed after 24 h (lysis buffer with 400 mM NaCl, 1% Triton X-100, 0.1% SDS, then an equal amount of water); supernatants incubated overnight at 4°C with anti-FLAG M2 magnetic beads or anti-Myc 9E10; immunoblot; the co-precipitated TRF1, TRF2 or TPP1 divided by the TIN2 precipitated and normalised to TIN2S
flag-2×HA-TIN2S (human) = target: T1, flag-2×HA-TIN2S (human) (UniProt Q9BSI4)
T1 sequence: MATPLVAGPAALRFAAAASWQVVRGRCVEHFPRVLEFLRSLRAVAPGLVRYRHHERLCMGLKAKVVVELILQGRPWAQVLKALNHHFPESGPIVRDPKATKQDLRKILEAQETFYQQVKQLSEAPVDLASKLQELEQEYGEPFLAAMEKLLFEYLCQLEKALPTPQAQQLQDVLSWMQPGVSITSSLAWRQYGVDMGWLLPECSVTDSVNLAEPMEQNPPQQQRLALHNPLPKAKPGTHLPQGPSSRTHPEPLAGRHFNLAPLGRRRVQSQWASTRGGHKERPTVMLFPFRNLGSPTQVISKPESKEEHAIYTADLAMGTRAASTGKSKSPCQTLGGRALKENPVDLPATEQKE

[1] = target: T2, flag-2×HA-TIN2L-S396A (human) (UniProt Q9BSI4)
T2 sequence: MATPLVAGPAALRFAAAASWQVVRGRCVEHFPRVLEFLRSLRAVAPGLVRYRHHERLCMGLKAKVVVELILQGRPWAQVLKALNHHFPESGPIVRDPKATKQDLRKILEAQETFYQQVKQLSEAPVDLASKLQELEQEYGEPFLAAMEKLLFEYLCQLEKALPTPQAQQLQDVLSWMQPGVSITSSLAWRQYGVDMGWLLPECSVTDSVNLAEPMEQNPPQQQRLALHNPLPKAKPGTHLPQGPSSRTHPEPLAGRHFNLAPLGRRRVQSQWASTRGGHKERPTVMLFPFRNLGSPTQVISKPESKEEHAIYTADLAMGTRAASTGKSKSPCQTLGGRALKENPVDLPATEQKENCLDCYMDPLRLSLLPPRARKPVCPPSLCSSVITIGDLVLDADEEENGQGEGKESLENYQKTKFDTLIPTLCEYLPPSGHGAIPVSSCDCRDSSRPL

[2] = target: T3, flag-2×HA-TIN2S-R282H (human) (UniProt Q9BSI4)
T3 sequence: T1 sequence with R282H

[3] = target: T4, flag-2×HA-TIN2L-R282H (human) (UniProt Q9BSI4)
T4 sequence (chain, R282H did not affect TIN2L phosphorylation (Phos-tag)): T2 sequence with R282H, A396S

Measured: binding

myc-TPP1 (from UniProt Q96AP0 1-458)
binds: flag-2×HA-TIN2S (human) | [1] | [2]

myc-TRF1 (from UniProt P54274 1-439)
binds: all assays above
